The other results are listed elsewhere or left out. Hit calls seldom repeat between salt and free forms of one compound.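 In K562 cells expressing nanoluciferase-fused kinases, luminescence was recorded at 4 h intervals between 2 and 18 h, normalized as percent of control with DMSO at 100% and a positive control at 0%. A significant (2 sigma) signal drop marks a time point as decreased. The authors' rule for a hit is not shown and takes in more than the number of time points.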
Key:
Assay in all cases: number of time points (of 5) at which kinase-Nluc abundance scored as decreased, DMSO-normalised (count); higher = more persistent destabilization
Conditions in all cases: K562; 2-18 h
ALK = ALK (UniProt Q9UM73)
ARAF = ARAF (UniProt P10398)
AURKA = AURKA (UniProt O14965)
AURKB = AURKB (UniProt Q96GD4)
AURKC = AURKC (UniProt Q9UQB9)
BLK = BLK (UniProt P51451)
BMX = BMX (UniProt P51813)
BRAF = BRAF (UniProt P15056)
BRAF_V600E = tested on: BRAF_V600E
BTK = BTK (UniProt Q06187)
CAMK2A = CAMK2A (UniProt Q9UQM7)
CAMK2G = CAMK2G (UniProt Q13555)
CDK10 = CDK10 (UniProt Q15131)
CDK2 = CDK2 (UniProt P24941)
CDK3 = CDK3 (UniProt Q00526)
CDK5 = CDK5 (UniProt Q00535)
CDK6 = CDK6 (UniProt Q00534)
CHEK2 = CHEK2 (UniProt O96017)
CSF1R = CSF1R (UniProt P07333)
CSK = CSK (UniProt P41240)

Sequences of proteins named here, by UniProt entry; tags and fusion partners are left off. A change or cut given only in a name is not applied to a line headed by its entry.
UniProt Q9UM73: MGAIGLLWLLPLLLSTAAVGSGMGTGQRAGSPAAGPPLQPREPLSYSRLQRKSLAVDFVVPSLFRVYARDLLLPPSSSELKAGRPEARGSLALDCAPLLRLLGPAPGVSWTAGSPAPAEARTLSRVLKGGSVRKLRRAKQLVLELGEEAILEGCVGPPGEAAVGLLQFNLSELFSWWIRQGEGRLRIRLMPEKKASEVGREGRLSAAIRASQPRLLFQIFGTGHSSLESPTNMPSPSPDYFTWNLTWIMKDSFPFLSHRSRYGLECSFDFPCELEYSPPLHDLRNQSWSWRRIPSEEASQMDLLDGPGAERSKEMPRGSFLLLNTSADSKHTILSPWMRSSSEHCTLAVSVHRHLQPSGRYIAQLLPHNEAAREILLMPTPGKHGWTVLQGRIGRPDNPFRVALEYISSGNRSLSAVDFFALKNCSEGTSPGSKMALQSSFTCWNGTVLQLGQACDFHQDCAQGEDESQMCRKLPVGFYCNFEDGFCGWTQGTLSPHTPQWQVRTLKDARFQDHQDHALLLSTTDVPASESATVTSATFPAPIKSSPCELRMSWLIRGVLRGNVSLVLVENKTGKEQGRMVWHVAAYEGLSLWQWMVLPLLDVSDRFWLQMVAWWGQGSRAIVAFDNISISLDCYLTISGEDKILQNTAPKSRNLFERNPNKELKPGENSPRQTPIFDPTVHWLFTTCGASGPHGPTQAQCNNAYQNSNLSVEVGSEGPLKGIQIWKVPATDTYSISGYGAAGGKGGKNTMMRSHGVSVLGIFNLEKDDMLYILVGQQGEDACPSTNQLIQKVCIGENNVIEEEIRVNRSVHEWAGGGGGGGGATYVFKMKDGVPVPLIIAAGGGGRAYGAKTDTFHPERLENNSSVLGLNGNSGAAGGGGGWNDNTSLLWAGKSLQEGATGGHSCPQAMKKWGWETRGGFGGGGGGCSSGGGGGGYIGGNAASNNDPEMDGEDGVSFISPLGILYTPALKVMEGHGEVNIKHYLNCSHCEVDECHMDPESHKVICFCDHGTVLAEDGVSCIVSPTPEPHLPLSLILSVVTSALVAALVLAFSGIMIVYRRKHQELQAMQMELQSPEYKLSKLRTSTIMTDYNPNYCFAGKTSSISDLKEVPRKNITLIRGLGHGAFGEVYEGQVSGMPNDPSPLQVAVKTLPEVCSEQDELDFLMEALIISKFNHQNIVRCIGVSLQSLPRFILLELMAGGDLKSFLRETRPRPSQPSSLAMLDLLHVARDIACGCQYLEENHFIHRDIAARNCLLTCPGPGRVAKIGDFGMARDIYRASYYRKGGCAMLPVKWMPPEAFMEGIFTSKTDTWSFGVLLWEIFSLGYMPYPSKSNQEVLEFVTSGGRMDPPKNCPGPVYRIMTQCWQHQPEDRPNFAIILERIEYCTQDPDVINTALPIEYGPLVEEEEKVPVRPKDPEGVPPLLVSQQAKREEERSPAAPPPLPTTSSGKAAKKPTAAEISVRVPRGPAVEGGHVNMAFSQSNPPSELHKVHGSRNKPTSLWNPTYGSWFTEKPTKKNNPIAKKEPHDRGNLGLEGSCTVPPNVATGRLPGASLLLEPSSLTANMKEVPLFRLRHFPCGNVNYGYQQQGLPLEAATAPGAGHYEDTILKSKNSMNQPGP
UniProt O14965: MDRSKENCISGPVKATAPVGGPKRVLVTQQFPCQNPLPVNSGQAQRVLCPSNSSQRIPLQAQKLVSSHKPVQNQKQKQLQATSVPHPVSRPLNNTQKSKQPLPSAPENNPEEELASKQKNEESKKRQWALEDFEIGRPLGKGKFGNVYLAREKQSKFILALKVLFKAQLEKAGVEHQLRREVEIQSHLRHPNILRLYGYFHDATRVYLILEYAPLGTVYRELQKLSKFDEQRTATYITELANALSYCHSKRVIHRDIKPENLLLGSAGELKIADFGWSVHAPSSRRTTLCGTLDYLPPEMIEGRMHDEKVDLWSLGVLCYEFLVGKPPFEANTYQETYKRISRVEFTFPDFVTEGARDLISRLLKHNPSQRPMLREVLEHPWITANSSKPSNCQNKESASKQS
UniProt P51813: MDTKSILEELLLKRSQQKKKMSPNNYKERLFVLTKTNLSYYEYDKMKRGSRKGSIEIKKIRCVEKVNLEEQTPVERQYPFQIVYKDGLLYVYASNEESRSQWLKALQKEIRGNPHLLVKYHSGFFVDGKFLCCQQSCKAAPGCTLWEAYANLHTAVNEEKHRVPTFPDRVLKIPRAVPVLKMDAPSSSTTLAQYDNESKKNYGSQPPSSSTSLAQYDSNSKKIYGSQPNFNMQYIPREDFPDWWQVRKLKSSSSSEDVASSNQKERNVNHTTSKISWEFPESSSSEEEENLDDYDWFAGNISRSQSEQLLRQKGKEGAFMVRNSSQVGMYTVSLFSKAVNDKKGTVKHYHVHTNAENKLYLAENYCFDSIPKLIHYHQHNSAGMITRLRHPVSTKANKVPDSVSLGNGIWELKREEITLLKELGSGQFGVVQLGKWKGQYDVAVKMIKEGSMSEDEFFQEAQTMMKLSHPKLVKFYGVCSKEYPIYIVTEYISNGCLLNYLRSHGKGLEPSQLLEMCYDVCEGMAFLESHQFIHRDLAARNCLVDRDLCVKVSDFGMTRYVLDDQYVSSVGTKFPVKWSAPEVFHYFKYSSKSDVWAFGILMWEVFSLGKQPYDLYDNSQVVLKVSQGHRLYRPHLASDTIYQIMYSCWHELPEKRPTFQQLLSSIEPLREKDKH
UniProt P15056, whole entry, looked up: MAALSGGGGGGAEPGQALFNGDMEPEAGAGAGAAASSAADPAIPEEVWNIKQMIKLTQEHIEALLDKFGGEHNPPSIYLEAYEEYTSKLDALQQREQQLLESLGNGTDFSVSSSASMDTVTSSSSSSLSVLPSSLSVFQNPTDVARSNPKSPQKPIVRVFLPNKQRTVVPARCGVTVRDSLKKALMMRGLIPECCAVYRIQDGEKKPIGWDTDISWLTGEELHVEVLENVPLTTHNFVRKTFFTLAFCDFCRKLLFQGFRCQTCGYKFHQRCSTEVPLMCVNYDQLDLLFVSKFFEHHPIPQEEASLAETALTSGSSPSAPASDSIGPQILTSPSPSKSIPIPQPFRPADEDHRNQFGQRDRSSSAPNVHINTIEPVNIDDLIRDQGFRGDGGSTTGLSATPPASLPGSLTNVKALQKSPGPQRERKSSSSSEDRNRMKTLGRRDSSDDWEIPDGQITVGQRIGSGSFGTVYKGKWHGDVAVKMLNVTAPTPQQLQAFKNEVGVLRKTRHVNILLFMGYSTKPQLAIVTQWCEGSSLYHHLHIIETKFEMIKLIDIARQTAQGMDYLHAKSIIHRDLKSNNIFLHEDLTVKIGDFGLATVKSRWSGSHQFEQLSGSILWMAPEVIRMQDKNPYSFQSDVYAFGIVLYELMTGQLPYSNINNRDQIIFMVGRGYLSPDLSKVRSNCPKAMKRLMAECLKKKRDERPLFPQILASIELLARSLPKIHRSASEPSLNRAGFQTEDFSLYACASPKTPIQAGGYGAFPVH
UniProt Q06187: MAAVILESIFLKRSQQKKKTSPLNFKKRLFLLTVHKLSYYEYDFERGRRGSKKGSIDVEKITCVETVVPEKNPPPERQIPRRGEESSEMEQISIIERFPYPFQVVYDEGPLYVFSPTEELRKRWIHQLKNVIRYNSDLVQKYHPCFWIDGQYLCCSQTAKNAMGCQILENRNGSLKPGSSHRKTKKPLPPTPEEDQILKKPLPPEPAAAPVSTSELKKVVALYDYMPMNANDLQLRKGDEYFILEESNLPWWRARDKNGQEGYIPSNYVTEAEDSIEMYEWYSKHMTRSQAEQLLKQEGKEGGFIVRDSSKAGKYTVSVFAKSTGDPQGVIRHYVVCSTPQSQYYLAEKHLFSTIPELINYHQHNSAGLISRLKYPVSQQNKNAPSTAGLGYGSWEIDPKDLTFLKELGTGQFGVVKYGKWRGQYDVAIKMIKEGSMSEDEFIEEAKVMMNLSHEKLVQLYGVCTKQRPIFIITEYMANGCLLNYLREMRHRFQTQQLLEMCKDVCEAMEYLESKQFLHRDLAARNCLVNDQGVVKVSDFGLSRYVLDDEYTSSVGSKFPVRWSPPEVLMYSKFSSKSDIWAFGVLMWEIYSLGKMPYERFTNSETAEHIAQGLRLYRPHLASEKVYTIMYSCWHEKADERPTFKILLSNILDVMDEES
UniProt Q00534, whole entry: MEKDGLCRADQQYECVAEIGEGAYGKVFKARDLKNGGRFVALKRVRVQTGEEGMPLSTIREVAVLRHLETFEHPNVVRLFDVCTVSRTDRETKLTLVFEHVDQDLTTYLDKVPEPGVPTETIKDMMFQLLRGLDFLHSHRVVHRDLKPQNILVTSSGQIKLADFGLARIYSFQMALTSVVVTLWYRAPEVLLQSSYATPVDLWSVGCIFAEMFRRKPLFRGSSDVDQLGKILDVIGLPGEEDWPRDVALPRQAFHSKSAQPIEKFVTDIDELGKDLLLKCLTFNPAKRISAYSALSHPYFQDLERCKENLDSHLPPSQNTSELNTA
UniProt O96017, whole entry: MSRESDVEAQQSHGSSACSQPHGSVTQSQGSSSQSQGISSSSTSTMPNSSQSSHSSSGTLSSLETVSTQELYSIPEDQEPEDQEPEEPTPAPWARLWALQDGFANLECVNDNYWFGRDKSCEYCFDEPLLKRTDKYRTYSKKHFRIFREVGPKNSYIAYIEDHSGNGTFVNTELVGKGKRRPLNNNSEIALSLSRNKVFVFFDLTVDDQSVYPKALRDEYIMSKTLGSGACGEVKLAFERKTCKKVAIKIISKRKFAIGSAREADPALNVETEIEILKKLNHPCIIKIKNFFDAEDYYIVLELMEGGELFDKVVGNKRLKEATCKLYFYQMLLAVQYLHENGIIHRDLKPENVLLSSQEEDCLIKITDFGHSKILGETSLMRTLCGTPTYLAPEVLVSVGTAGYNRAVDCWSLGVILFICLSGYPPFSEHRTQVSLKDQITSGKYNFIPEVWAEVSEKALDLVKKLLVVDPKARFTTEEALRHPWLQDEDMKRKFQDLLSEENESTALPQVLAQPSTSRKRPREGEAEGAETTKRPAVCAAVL
UniProt P07333, whole entry: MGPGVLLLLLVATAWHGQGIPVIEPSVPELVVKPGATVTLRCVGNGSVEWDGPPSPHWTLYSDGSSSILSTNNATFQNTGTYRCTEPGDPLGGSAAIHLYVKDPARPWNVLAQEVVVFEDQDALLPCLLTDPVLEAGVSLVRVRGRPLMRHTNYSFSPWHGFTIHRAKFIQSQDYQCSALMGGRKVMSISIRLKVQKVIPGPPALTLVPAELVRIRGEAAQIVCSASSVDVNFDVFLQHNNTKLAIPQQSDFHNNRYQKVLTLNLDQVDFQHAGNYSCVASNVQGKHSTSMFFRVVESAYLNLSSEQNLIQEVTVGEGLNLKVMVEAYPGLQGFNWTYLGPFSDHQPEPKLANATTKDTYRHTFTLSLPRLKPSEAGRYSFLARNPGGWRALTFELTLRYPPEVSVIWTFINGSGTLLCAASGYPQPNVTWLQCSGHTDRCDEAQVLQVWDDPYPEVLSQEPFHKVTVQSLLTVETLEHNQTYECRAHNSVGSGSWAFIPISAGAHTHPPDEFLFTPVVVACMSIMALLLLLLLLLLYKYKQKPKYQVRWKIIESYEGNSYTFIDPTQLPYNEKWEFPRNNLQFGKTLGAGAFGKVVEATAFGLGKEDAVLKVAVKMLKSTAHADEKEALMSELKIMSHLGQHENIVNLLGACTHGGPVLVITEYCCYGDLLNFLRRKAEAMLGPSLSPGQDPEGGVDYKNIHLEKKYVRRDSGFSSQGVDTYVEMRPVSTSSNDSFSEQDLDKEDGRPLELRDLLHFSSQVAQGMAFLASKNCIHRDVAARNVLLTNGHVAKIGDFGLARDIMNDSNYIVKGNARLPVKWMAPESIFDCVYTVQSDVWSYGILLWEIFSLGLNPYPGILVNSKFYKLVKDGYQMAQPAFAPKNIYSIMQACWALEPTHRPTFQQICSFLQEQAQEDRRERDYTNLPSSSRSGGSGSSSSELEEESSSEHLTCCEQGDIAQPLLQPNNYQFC
UniProt P41240: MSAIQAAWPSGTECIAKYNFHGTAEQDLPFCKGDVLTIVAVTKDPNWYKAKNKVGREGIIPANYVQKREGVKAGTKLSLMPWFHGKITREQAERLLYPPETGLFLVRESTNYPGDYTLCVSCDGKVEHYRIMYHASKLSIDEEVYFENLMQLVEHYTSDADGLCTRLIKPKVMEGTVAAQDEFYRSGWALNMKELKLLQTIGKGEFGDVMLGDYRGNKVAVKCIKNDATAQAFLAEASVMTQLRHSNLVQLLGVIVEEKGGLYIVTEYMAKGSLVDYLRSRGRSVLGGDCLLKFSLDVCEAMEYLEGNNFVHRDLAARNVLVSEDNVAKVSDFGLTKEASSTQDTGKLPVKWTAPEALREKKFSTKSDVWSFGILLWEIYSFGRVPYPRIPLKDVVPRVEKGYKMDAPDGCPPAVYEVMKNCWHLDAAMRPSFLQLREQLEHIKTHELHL

Structure (SMILES)	number of time points (ALK)	number of time points (ARAF)	number of time points (AURKA)	number of time points (AURKB)	number of time points (AURKC)	number of time points (BLK)	number of time points (BMX)	number of time points (BRAF)	number of time points (BRAF_V600E)	number of time points (BTK)	number of time points (CAMK2A)	number of time points (CAMK2G)	number of time points (CDK10)	number of time points (CDK2)	number of time points (CDK3)	number of time points (CDK5)	number of time points (CDK6)	number of time points (CHEK2)	number of time points (CSF1R)	number of time points (CSK)
CCN(CC)CCOc1ccc(Nc2nc(-c3ccccc3NC(=O)CCN3CCN(C)CC3)nc3ccccc23)cc1 (2.5 µM)	0	0	0	0	0	0	0	0	0	0	0	0	0	0	0	0	0	0	0	0
C[C@H]1O[C@@H](O[C@H]2CC[C@@]3(C)[C@@H](CC[C@]4(C)[C@@H]3C=C[C@]35OC[C@@]6(CCC(C)(C)C[C@H]63)[C@H](O)C[C@]54C)[C@]2(C)CO)[C@H](O)[C@@H](O[C@@H]2O[C@H](CO)[C@@H](O)[C@H](O)[C@H]2O)[C@H]1O [Saikosaponin D] (2.5 µM)	0	0	0	0	0	0	0	0	0	0	0	4	0	0	0	0	0	4	0	0
CO[C@H]1C[C@@H]2CC[C@@H](C)[C@@](O)(O2)C(=O)C(=O)N2CCCC[C@H]2C(=O)O[C@H]([C@H](C)C[C@@H]2CC[C@@H](OCCO)[C@H](OC)C2)CC(=O)[C@H](C)/C=C(\C)[C@@H](O)[C@@H](OC)C(=O)[C@H](C)C[C@H](C)/C=C/C=C/C=C/1C [Everolimus] (10 µM)	0	0	0	0	0	0	0	0	0	0	0	0	0	0	0	0	0	0	0	0
c1ccc(Cn2c(-c3ccc(OC[C@H](C4CCNCC4)n4c(-c5ccccc5)nc5ccccc54)cc3)nc3ccccc32)cc1 [Deltarasin] (2.5 µM)	0	0	0	0	0	0	0	0	0	0	0	0	0	0	0	0	0	0	0	0
O=C(O)[C@H]1O[C@@H](Oc2cc3oc(-c4ccc(O)cc4)cc(=O)c3c(O)c2O)[C@H](O)[C@@H](O)[C@@H]1O [Scutellarin] (10 µM)	0	0	0	0	0	0	0	0	0	0	0	0	0	0	0	0	0	0	0	0
CC(C)=CCC/C(C)=C/CC/C(C)=C/C=C/C(C)=C/C(=O)O [Peretinoin] (10 µM)	0	0	0	0	0	0	0	0	0	0	0	0	0	0	0	0	0	0	0	0
Cc1ccc(C(=O)NC2CC2)cc1-n1ncc(C(=O)c2cccc(C#N)c2)c1N [Acumapimod] (10 µM)	0	0	0	0	0	0	0	0	0	0	0	0	0	0	0	0	0	0	0	0
C=CC(=O)Nc1cccc(Oc2nc(Nc3ccc(N4CCN(C)CC4)c(F)c3)nc3[nH]ccc23)c1 [Avitinib (maleate)] (2.5 µM)	0	0	0	0	0	0	0	0	0	0	0	0	0	0	0	0	0	0	0	0
CC(C)n1c([C@H](C)Nc2ncnc(N)c2C#N)cc2cccc(-c3ccc(=O)n(C)c3)c2c1=O (10 µM)	0	0	0	0	0	0	0	0	0	0	0	0	0	0	0	0	0	0	0	0
CCCn1/c(=N/C(=O)c2cccc(C(N)=O)c2)[nH]c2ccccc21 [Takinib] (10 µM)	0	0	0	0	0	0	0	0	0	0	0	0	0	0	0	0	0	0	0	0
COC(=O)/C=C/c1ccccc1 [Methyl cinnamate] (10 µM)	0	0	0	0	0	0	0	0	0	0	0	0	0	0	0	0	0	0	0	0
COc1cc2nccc(Oc3ccc(NC(=O)c4cn(C(C)C)c(=O)n(-c5ccc(F)cc5)c4=O)cc3F)c2cc1OC (0.5 µM)	0	0	1	0	0	0	2	0	0	0	0	0	0	0	0	0	0	1	1	0
NC1(C(=O)NCCCn2cc(-c3ccc(OC(F)(F)F)cc3)c3cc(CN4CCN(Cc5c(Cl)cccc5Cl)CC4)ccc32)CCNCC1 (2.5 µM)	0	0	2	0	0	1	0	0	1	0	0	0	0	0	0	0	0	0	0	0
COc1cc(N2CCOCC2)ccc1Nc1ncc(F)c(Nc2ccccc2NS(C)(=O)=O)n1 (10 µM)	0	0	0	0	0	0	0	0	0	0	0	0	0	0	0	0	0	0	0	0
CC(C)=CC[C@@H](O)C1=CC(=O)c2c(O)ccc(O)c2C1=O [Shikonin] (10 µM)	0	0	0	0	0	0	1	0	0	0	0	0	0	0	0	0	0	0	0	0
Cc1cc(Nc2cc(N)ncn2)c(=O)n2c1C(=O)NC21CCCCC1 [Tomivosertib] (10 µM)	0	0	0	0	0	0	0	0	0	0	0	0	0	0	0	0	0	0	0	0
O=C1Nc2ccc(I)cc2/C1=C/c1cc(Br)c(O)c(Br)c1 (10 µM)	0	0	1	0	0	0	4	5	4	0	4	1	0	0	3	0	3	2	0	0

At a glance, some entries already given:
Structure (SMILES)	number of time points (ALK)	number of time points (ARAF)	number of time points (AURKA)	number of time points (AURKB)	number of time points (AURKC)	number of time points (BLK)	number of time points (BMX)	number of time points (BRAF)	number of time points (BRAF_V600E)	number of time points (BTK)	number of time points (CAMK2A)	number of time points (CAMK2G)	number of time points (CDK10)	number of time points (CDK2)	number of time points (CDK3)	number of time points (CDK5)	number of time points (CDK6)	number of time points (CHEK2)	number of time points (CSF1R)	number of time points (CSK)
Cc1ccc(C(=O)NC2CC2)cc1-n1ncc(C(=O)c2cccc(C#N)c2)c1N [Acumapimod] (10 µM)	0	0	0	0	0	0	0	0	0	0	0	0	0	0	0	0	0	0	0	0
C=CC(=O)Nc1cccc(Oc2nc(Nc3ccc(N4CCN(C)CC4)c(F)c3)nc3[nH]ccc23)c1 [Avitinib (maleate)] (2.5 µM)	0	0	0	0	0	0	0	0	0	0	0	0	0	0	0	0	0	0	0	0
